Source: article PMC4613824
These are yes or no findings as the source states them, for the method shown. Binding can be weak; no strength is given.

By UniProt entry, the sequences of proteins in these tests, tags left out. Where a name states a change or a piece, a line headed by the entry shows the natural chain unless it says otherwise.
UniProt Q6GQX2: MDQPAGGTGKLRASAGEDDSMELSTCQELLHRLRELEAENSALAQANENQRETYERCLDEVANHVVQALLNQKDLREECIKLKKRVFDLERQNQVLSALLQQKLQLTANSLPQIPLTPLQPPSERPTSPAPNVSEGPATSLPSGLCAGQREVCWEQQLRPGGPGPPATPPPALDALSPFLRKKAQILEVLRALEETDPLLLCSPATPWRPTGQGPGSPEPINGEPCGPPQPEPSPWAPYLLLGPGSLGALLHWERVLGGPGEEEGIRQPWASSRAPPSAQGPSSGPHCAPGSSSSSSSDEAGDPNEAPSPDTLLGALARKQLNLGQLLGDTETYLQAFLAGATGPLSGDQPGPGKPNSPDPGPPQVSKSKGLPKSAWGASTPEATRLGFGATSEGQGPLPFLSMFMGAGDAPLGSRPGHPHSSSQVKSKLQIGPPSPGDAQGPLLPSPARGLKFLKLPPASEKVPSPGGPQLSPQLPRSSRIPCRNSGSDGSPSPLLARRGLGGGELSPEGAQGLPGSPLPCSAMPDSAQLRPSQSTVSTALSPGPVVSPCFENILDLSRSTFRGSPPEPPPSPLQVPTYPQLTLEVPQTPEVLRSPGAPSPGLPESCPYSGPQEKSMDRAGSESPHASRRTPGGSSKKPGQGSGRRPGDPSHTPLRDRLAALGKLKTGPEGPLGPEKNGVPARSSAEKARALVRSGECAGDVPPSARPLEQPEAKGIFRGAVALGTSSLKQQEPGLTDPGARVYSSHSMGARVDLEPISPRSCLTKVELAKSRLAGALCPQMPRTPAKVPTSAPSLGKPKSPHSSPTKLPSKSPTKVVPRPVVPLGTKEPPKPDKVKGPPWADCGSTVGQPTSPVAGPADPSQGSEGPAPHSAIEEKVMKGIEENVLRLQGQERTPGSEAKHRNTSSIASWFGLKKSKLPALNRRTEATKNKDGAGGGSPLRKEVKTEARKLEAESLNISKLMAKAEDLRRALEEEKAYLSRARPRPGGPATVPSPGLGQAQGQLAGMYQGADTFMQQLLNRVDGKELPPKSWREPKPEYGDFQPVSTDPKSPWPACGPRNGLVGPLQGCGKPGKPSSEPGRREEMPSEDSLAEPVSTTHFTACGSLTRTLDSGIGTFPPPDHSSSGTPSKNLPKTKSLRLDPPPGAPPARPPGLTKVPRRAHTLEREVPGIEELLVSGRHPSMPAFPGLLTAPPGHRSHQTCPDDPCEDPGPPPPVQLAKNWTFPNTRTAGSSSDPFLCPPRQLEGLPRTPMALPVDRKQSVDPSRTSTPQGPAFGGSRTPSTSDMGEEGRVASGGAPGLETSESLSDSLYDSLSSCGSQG

Target: T1, CM1 domain of human CDK5RAP2 (58-196) (human) (UniProt Q96SN8)
T1 sequence: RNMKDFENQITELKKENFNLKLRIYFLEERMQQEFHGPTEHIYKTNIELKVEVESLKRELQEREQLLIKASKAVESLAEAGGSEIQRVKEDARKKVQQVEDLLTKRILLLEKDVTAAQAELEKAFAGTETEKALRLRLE
Test: two-hybrid; CM1 (58-196) of CDK5RAP2 fused to the GAL4 DNA-binding domain (pGBKT7) as bait; mouse embryo cDNA two-hybrid library as prey

binding: binds
Substance: amino-terminal region of NCKAP5L (two-hybrid prey) (from UniProt Q6GQX2) (domain or fragment)
